Some entries share one result that the patent states for a list of compounds.
Assays:
[1] = biological target: T1, CD200R1 on HH (CRL-2105) cells (Homo sapiens, UniProt Q8TD46); experiment: Cell binding assay (flow cytometry), HH cells; format: cell-based; settings: 500 nM, IgG1 form
T1 construct: HH (CRL-2105) cells, which endogenously express CD200R1; host or cells: HH (CRL-2105) cells
T1 sequence (Q8TD46 25-348): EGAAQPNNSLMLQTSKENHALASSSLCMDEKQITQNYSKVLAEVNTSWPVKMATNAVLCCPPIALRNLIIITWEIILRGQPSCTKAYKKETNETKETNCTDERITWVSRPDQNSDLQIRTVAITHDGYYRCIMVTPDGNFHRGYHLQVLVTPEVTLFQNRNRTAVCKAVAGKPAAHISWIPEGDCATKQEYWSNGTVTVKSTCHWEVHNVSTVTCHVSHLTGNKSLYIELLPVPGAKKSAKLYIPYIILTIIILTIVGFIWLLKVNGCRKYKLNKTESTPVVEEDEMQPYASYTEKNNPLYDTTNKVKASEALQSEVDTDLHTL
Experimental: (§1) The binding ability of the antibodies identified using unique multifaceted antibody discovery technology was identified in HH (CRL-2105) cells, which endogenously express CD200R1, and Jurkat-CD200R1 cells (Source: DiscoverX), which were generated by intranuclear injection of CD200R1 cDNA.
(§2) HH and Jurkat-CD200R1 cells were maintained in RPMI 1640 medium supplemented with 10% heat-inactivated FBS and 1% Penicillin/Streptomycin (P/S). The cells were washed by centrifugation at 130 g for 5 minutes. The cells were seeded onto 96-well round-bottom plates (SPL, #34296) at a density of 1×10^5 cells/well in Flow cytometry staining buffer (Invitrogen, #00-4222-26) or FACS buffer. […]
(§3) Cell-binding ability was determined in the same manner as in Example 12. For the six active substances primarily selected in Example 12, the isotype was changed to IgG4 or the LALAPG gene was mutated, and binding activity was determined in the two cell lines mentioned above.
(§4) Binding ability was determined in HH, an endogenous T cell line with high CD200R1 expression, and two additional overexpressing cell lines: U937-CD200R overexpressing cells, generated by intranuclear injection of human CD200R1 CDNA into the monocytic cell line U937 (CRL-1593.2) (Source: UMC Utrecht, the Netherlands) and Jurkat-CD200R overexpressing cells, were also cells engineered using a similar method. […]

[2] = biological target: T2, CD200R1 on Jurkat-CD200R1 cells (Homo sapiens, UniProt Q8TD46); experiment: Cell binding assay (flow cytometry), Jurkat-CD200R1 cells; format: cell-based; settings: 500 nM, IgG1 form
T2 construct: host or cells: Jurkat
T2 sequence (Q8TD46 25-348): T1 sequence (Q8TD46 25-348)
Experimental: as §1, §2, §3, §4

human CD200R1 = biological target: T3, human CD200R1 (Homo sapiens, UniProt Q8TD46); experiment: Hybridoma clone ELISA binding to antigen; settings: hybridoma clones
T3 sequence (Q8TD46 25-348): T1 sequence (Q8TD46 25-348)

| Substance | binding ability, MFI normalized to P001017 [1] | binding ability, MFI normalized to P001017 [2] | ELISA O.D., negative antigen (human CD200R1) |
| --- | --- | --- | --- |
| P001004: phage display anti-CD200R1 clone; VH SEQ ID NO: 74, VL SEQ ID NO: 89 | over 50% | over 50% |  |
| 6A10: hybridoma anti-CD200R1 clone; VH SEQ ID NO: 140, VL SEQ ID NO: 147 |  |  | ≤ 0.04 |
| 6C3: hybridoma anti-CD200R1 clone; VH SEQ ID NO: 141, VL SEQ ID NO: 148 |  |  | ≤ 0.04 |
